Laboratory results as given in the supplement of paper PMC10060354, “Discovery of a small molecule ligand of FRS2 that inhibits invasion and tumor growth” (Cellular Oncology, 2022).

By UniProt entry, the sequences of proteins in these tests, tags left out. Where a name states a change or a piece, a line headed by the entry shows the natural chain unless it says otherwise.
UniProt Q7Z7E8: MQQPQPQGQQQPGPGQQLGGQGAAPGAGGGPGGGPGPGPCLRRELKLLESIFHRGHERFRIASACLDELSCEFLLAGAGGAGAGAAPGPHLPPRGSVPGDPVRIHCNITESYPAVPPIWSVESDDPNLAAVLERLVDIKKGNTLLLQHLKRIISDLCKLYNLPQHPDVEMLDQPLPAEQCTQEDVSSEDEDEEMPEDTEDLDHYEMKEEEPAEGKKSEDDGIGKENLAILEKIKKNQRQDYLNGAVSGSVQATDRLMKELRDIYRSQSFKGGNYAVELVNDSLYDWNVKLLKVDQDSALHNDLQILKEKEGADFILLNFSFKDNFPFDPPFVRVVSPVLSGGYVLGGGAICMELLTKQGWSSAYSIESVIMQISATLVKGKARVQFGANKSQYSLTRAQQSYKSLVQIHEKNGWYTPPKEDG
UniProt Q96FJ0: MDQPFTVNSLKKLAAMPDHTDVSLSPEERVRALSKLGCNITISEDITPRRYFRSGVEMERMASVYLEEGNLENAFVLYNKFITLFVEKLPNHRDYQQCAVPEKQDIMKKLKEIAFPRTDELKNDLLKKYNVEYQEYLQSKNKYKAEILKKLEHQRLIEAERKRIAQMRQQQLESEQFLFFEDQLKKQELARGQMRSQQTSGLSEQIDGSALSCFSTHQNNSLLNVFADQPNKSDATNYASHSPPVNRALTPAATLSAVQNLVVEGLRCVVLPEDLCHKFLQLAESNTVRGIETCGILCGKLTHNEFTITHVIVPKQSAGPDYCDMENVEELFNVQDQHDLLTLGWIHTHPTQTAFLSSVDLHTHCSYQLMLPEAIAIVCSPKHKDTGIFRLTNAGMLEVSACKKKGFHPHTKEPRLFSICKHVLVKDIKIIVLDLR
UniProt Q92556, whole entry: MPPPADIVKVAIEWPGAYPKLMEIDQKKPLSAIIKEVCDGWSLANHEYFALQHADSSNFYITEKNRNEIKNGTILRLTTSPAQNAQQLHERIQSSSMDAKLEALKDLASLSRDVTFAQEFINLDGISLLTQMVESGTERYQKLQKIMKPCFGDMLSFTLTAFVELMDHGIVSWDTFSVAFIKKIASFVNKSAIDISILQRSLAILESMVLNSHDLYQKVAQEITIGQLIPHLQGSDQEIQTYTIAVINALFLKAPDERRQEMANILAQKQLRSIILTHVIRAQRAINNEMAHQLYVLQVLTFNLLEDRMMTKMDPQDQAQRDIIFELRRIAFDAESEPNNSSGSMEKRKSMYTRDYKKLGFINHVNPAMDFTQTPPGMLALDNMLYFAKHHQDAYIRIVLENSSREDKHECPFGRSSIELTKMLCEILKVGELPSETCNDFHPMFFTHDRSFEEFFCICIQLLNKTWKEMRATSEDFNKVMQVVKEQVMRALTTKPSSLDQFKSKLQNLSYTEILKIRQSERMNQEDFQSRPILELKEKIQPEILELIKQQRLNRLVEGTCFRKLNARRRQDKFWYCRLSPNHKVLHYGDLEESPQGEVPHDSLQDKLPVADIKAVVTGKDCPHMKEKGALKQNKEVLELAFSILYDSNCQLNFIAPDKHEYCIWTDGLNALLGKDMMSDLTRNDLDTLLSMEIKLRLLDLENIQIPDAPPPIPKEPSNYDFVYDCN
UniProt Q99576: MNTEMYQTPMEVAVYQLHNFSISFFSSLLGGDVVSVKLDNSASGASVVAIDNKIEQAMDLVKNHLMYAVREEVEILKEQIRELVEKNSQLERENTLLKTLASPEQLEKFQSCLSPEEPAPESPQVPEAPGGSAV
UniProt Q9H467: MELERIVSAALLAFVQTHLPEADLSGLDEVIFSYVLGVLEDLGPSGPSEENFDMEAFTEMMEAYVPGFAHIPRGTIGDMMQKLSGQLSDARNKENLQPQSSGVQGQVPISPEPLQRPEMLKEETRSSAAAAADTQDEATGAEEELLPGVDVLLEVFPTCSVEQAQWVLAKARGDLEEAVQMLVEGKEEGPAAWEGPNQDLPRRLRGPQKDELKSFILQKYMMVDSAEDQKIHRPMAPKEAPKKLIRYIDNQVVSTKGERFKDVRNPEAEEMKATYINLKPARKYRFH
UniProt Q9Y6M1: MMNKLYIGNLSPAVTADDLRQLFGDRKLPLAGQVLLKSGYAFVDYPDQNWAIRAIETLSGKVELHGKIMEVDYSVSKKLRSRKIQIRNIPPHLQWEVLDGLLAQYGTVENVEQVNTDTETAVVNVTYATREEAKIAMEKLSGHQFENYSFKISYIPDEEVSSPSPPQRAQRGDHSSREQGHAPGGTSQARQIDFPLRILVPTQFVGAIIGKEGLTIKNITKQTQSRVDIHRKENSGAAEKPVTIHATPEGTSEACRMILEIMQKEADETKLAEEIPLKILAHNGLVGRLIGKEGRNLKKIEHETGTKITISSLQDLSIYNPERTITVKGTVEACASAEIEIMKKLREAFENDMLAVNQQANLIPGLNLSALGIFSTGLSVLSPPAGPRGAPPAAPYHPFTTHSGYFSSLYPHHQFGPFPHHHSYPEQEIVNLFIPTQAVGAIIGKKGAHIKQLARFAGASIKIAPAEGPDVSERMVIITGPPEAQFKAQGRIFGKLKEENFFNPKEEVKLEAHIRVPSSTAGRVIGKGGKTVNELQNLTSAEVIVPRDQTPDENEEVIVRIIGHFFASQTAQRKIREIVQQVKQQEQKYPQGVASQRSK
UniProt C4AMC7: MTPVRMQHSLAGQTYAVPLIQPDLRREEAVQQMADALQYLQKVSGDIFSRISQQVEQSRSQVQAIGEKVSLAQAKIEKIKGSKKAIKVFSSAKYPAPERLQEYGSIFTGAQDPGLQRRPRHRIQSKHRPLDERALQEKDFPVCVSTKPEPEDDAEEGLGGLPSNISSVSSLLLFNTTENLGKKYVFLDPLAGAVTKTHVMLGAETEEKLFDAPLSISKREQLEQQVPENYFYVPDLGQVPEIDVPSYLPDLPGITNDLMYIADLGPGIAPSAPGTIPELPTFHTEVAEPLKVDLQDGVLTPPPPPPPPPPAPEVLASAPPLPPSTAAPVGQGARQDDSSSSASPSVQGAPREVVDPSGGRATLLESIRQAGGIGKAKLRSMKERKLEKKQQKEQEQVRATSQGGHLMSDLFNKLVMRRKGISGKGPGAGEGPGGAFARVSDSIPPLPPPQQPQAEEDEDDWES
UniProt Q9BX66: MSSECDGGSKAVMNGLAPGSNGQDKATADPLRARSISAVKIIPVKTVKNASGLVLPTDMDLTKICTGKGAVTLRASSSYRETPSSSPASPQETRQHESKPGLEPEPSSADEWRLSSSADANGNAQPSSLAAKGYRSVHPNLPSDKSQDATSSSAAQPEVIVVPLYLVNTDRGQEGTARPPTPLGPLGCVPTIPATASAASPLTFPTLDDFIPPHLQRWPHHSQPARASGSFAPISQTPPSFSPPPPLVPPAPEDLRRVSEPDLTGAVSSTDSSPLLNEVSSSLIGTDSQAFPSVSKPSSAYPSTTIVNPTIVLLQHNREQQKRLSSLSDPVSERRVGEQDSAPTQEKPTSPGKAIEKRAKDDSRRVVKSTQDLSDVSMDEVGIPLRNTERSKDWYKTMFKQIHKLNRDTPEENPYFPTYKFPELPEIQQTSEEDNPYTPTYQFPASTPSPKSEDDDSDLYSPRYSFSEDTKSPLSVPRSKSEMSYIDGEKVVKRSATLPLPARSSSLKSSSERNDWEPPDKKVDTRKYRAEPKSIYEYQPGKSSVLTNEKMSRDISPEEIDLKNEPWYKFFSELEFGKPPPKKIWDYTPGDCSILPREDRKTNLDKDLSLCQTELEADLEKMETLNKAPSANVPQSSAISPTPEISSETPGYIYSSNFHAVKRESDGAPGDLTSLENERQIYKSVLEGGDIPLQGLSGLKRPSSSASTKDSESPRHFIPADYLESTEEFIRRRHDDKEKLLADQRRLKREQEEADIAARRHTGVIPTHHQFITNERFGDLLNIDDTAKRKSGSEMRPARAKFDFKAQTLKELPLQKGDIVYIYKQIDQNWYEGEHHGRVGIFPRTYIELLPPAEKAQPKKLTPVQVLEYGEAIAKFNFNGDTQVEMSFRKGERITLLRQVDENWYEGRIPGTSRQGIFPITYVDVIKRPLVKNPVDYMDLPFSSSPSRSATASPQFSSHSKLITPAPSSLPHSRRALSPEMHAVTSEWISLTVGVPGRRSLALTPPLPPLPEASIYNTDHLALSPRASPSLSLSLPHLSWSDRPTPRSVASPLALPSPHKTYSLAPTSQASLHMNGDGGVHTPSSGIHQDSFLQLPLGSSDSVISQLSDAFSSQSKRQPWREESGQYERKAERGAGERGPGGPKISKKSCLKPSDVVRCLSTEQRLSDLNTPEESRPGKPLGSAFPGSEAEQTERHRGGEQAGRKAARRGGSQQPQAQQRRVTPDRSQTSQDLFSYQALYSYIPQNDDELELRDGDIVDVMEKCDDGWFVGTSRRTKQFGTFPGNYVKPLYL
UniProt Q9NYR9: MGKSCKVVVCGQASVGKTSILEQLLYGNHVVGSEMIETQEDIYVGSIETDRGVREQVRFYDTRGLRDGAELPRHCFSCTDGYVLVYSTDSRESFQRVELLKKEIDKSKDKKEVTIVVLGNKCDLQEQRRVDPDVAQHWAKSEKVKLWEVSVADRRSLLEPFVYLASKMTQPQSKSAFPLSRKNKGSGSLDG
UniProt Q6NUK1: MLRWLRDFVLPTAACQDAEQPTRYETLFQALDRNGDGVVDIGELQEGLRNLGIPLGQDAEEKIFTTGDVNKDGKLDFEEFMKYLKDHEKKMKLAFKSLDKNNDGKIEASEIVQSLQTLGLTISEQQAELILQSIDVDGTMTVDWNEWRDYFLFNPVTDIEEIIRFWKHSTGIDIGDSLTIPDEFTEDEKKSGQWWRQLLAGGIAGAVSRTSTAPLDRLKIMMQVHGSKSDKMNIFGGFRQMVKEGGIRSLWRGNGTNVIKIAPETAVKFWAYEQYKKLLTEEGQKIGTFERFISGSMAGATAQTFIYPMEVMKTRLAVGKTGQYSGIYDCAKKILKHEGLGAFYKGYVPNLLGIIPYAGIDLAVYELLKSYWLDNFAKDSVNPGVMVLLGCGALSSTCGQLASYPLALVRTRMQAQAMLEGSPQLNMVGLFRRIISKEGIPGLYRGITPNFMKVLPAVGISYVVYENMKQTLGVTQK
UniProt Q9H4P4: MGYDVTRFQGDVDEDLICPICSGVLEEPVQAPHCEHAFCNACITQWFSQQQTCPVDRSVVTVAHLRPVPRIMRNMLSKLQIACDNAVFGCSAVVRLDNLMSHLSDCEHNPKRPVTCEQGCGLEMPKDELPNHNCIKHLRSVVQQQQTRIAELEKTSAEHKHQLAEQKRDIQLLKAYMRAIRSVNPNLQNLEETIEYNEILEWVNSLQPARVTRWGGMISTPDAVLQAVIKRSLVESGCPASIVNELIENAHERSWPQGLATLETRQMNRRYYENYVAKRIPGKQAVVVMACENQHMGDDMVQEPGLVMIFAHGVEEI
UniProt Q7LGA3: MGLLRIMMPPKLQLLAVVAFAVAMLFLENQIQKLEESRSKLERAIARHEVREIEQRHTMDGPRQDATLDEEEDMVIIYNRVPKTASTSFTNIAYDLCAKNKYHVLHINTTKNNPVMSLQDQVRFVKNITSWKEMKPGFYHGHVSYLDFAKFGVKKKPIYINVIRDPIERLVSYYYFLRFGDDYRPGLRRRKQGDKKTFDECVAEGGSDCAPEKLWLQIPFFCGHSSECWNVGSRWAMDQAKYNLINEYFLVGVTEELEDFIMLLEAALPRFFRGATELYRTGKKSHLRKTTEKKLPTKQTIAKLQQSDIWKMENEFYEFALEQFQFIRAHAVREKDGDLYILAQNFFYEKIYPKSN
UniProt Q9BXP5: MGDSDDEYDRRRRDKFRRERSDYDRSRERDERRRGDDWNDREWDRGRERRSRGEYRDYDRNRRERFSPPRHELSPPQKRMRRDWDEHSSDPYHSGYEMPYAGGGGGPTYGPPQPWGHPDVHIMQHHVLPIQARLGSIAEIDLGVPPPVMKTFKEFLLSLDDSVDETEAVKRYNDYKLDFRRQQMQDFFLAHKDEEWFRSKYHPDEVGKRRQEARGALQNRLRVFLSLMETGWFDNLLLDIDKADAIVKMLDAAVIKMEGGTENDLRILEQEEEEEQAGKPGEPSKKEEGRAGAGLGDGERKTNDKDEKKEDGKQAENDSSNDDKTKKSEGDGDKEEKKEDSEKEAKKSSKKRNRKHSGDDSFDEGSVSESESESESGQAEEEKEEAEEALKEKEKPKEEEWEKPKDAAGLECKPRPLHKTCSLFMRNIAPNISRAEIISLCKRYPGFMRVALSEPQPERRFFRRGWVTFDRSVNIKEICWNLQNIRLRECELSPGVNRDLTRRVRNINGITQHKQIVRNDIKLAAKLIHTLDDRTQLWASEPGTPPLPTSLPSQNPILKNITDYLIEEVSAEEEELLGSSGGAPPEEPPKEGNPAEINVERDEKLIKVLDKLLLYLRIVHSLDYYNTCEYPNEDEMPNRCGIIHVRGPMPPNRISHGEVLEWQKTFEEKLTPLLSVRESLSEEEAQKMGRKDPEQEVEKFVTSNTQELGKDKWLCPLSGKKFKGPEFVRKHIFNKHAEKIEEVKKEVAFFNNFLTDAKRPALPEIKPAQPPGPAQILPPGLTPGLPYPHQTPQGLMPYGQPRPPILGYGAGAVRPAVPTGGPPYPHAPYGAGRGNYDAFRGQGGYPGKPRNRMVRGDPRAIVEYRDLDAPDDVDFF

Compound: [O-][N+](C(C1=C(C(O)=C2)NC(C(C=C3)=CC=C3Cl)C4C1C=CC4)=C2Cl)=O
Test: melting temperature shift (compound 7 minus DMSO); higher = compound stabilises the protein
Conditions: 10 µM
Description: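 Thermal proteome profiling (TMT mass spectrometry) in intact DAOY medulloblastoma cells or DAOY lysates treated with 10 µM compound 7 or DMSO, heated at 10 temperatures from 40.5 to 73.8 °C for 3 min. Melting curves were fitted with the Bioconductor TPP package, and the melting point difference between compound and vehicle is reported per protein (single curve per condition).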

[1] = system: DAOY cell lysate, treatment time: 20 min, 4 °C
[2] = system: intact DAOY cells, treatment time: 90 min, 37 °C

Row | Target | melting temperature shift [1] | melting temperature shift [2]
1 | MAD2L1 (UniProt Q13257) | -0.243 °C | -0.421 °C
2 | TAF6 (UniProt P49848) | -0.401 °C | 0.0566 °C
3 | DDX55 (UniProt Q8NHQ9) | 1.52 °C | –
4 | CYTH1 (UniProt Q15438) | -2.64 °C | 0.754 °C
5 | ESYT2 (UniProt A0FGR8) | 0.904 °C | -0.945 °C
6 | NAA20 (UniProt P61599) | 0.205 °C | -1.07 °C
7 | SLC25A19 (UniProt Q9HC21) | – | 1.52 °C
8 | EEF2 (UniProt P13639) | -1.04 °C | -0.0459 °C
9 | UBE2Q1 (UniProt Q7Z7E8) | -0.689 °C | 0.075 °C
10 | GIPC1 (UniProt O14908) | 0.53 °C | 0.634 °C
11 | SMARCD2 (UniProt Q92925) | -2.98 °C | –
12 | UniProt O95170 | – | 7.23 °C
13 | GK (UniProt P32189) | -0.735 °C | -0.728 °C
14 | GCSH (UniProt P23434) | 2.01 °C | –
15 | UniProt Q12955 | -0.135 °C | -0.00651 °C
16 | YARS (UniProt P54577) | -0.795 °C | -0.106 °C
17 | IFRD1 (UniProt O00458) | -0.413 °C | -1.14 °C
18 | PAIP1 (UniProt Q9H074) | -1.11 °C | -0.675 °C
19 | UniProt O15405 | – | -0.972 °C
20 | STAMBPL1 (UniProt Q96FJ0) | – | -0.396 °C
21 | HAT1 (UniProt O14929) | -0.452 °C | -0.0732 °C
22 | PRPF8 (UniProt Q6P2Q9) | -0.174 °C | 0.285 °C
23 | PLS1 (UniProt Q14651) | -0.577 °C | -0.393 °C
24 | NHLRC2 (UniProt Q8NBF2) | 0.572 °C | 0.324 °C

Individual results from the entries so far.
Entry for NHLRC2 (UniProt Q8NBF2) under melting temperature shift [1]: 0.572 °C
Entry for HAT1 (UniProt O14929) under melting temperature shift [1]: -0.452 °C

Following part:

Row | Target | melting temperature shift [1] | melting temperature shift [2]
25 | CDIPT (UniProt O14735) | 3.14 °C | 0.0308 °C
26 | GAMT (UniProt Q14353) | -0.548 °C | 1.19 °C
27 | UniProt Q2VIQ3 | – | 0.765 °C
28 | UniProt Q8IZP2 | – | 0.122 °C
29 | UniProt Q9BQ48 | – | -2.03 °C
30 | VCPIP1 (UniProt Q96JH7) | 0.36 °C | 0.497 °C
31 | SNAP29 (UniProt O95721) | -2.08 °C | –
32 | UniProt P08476 | 0.149 °C | -0.253 °C
33 | AARS (UniProt P49588) | -0.768 °C | -1.32 °C
34 | BIN1 (UniProt O00499) | -0.713 °C | 0.114 °C
35 | AACS (UniProt Q86V21) | -1.24 °C | 0.368 °C
36 | GAR1 (UniProt Q9NY12) | 0.88 °C | 0.448 °C
37 | LSM3 (UniProt P62310) | -0.128 °C | -0.733 °C
38 | DUSP3 (UniProt P51452) | -0.286 °C | 0.243 °C
39 | UniProt Q92556 | – | 2.37 °C
40 | MARK1 (UniProt Q9P0L2) | -4.05 °C | 0.545 °C
41 | UniProt Q99576 | – | 2.02 °C
42 | AIDA (UniProt Q96BJ3) | 0.751 °C | -0.163 °C
43 | RAB12 (UniProt Q6IQ22) | -0.0158 °C | 1.47 °C
44 | LAMTOR1 (UniProt Q6IAA8) | 1.96 °C | 0.583 °C
45 | MRPS26 (UniProt Q9BYN8) | 2.63 °C | 0.0662 °C
46 | KCNAB2 (UniProt Q13303) | -0.386 °C | –
47 | NFATC2IP (UniProt Q8NCF5) | -0.0923 °C | 4.31 °C
48 | CUEDC2 (UniProt Q9H467) | 8.48 °C | –

Row | Target | melting temperature shift [1] | melting temperature shift [2]
49 | EEF1A1 (UniProt P68104) | -0.388 °C | -1.18 °C
50 | UniProt Q02297 | -3.27 °C | 2.32 °C
51 | AGPAT3 (UniProt Q9NRZ7) | 0.391 °C | -1.61 °C
52 | ARHGEF10 (UniProt O15013) | -2.53 °C | –
53 | UGDH (UniProt O60701) | -0.36 °C | -0.524 °C
54 | UniProt P0DMU9 | – | 1.32 °C
55 | PCCA (UniProt P05165) | – | -1.37 °C
56 | A0A0J9YXQ4, A0A0J9YXQ4 | 0.125 °C | 0.103 °C
57 | MAP3K4 (UniProt Q9Y6R4) | -1.19 °C | -0.737 °C
58 | IGF2BP2 (UniProt Q9Y6M1) | -0.508 °C | 0.188 °C
59 | UniProt Q14627 | -0.258 °C | 0.115 °C
60 | UniProt C4AMC7 | – | 1.4 °C
61 | MORF4L1 (UniProt Q9UBU8) | -0.263 °C | -0.156 °C
62 | UniProt Q6PEY2 | – | -0.765 °C
63 | EFEMP1 (UniProt Q12805) | 1.15 °C | -0.732 °C
64 | UniProt P48378 | – | -0.798 °C
65 | UniProt P00480 | 1.12 °C | –
66 | UniProt P48995 | – | -2.24 °C
67 | TNKS1BP1 (UniProt Q9C0C2) | -3.46 °C | –
68 | IMPDH1 (UniProt P20839) | -0.858 °C | -1.75 °C
69 | QRICH1 (UniProt Q2TAL8) | -0.953 °C | 1.29 °C
70 | ITGA6 (UniProt P23229) | 1.48 °C | 0.101 °C
71 | UniProt Q7L311 | -2.77 °C | 3.49 °C
72 | UniProt Q9BX66 | – | -0.751 °C

Row | Target | melting temperature shift [1] | melting temperature shift [2]
73 | UniProt Q8IW92 | – | 1.51 °C
74 | UniProt Q9UNA1 | 1.91 °C | –
75 | MTG1 (UniProt Q9BT17) | – | -1.39 °C
76 | LANCL2 (UniProt Q9NS86) | -0.748 °C | -0.496 °C
77 | ILVBL (UniProt A1L0T0) | -0.68 °C | 0.803 °C
78 | MINPP1 (UniProt Q9UNW1) | -0.357 °C | 0.45 °C
79 | P86790 (UniProt P86791) | -1.15 °C | -0.043 °C
80 | TBC1D24 (UniProt Q9ULP9) | 1.5 °C | -2.19 °C
81 | UniProt Q99717 | -4.45 °C | –
82 | NKIRAS2 (UniProt Q9NYR9) | 0.27 °C | –
83 | PANX1 (UniProt Q96RD7) | 3.3 °C | –
84 | DTX3L (UniProt Q8TDB6) | -1.61 °C | –
85 | SLC25A24 (UniProt Q6NUK1) | 1.65 °C | -2.92 °C
86 | SMAD2 (UniProt Q15796) | 1.66 °C | 0.443 °C
87 | ABCE1 (UniProt P61221) | -0.56 °C | -0.609 °C
88 | UniProt Q9Y664 | -0.613 °C | –
89 | ACTR8 (UniProt Q9H981) | 0.68 °C | -5.44 °C
90 | UniProt P15144 | 2.34 °C | –
91 | UCK1 (UniProt Q9HA47) | – | 1.81 °C
92 | UniProt Q9P1Y6 | -0.307 °C | –
93 | FLII (UniProt Q13045) | -0.553 °C | -0.806 °C
94 | UniProt Q9H4P4 | 0.775 °C | –
95 | TSR1 (UniProt Q2NL82) | -0.58 °C | 0.0676 °C
96 | AKAP11 (UniProt Q9UKA4) | -0.503 °C | –

Row | Target | melting temperature shift [1] | melting temperature shift [2]
97 | HS2ST1 (UniProt Q7LGA3) | 1.74 °C | 0.132 °C
98 | COMMD2 (UniProt Q86X83) | -0.743 °C | –
99 | UniProt Q3B7J2 | -2.32 °C | –
100 | XPO6 (UniProt Q96QU8) | -0.845 °C | -0.622 °C
101 | DDX6 (UniProt P26196) | -0.0603 °C | 0.205 °C
102 | UniProt O75093 | 0.0223 °C | -0.374 °C
103 | UniProt O43462 | – | -2.45 °C
104 | TTI2 (UniProt Q6NXR4) | 0.0543 °C | -0.551 °C
105 | COMMD4 (UniProt Q9H0A8) | -0.475 °C | -0.182 °C
106 | PFKP (UniProt Q01813) | -0.516 °C | -0.916 °C
107 | NDUFAF2 (UniProt Q8N183) | 1.75 °C | –
108 | MRPS30 (UniProt Q9NP92) | 0.0673 °C | -1.43 °C
109 | SNX9 (UniProt Q9Y5X1) | -0.312 °C | -0.771 °C
110 | UniProt Q9BQ24 | 4.29 °C | –
111 | UniProt P02462 | 1.51 °C | 0.581 °C
112 | ARAF (UniProt P10398) | -2.2 °C | –
113 | CCT5 (UniProt P48643) | -0.269 °C | -0.39 °C
114 | CPSF3L (UniProt Q5TA45) | -0.622 °C | 1.2 °C
115 | SRRT (UniProt Q9BXP5) | -0.0146 °C | -0.726 °C
116 | C15ORF40 (UniProt Q8WUR7) | 0.66 °C | –
117 | CC2D1B (UniProt Q5T0F9) | 0.786 °C | -0.534 °C

Repeats are few or missing, and single values can be far off.
